Laboratory results published in the supplement of paper PMC7877785.
± gives the uncertainty stated by the source. Many of these values have a large error.

Assay: self-splicing fitness, log relative to wild type (ln ratio); higher = more splicing; Tetrahymena group I intron in knt gene, E. coli kanamycin selection, DiMSum; sequences stand for … in CUCUCU…GGAGGGAAAAGUUAUCAGGCAUGCACCUGGUAGCUAGUCUUUAAACCAAUAGAUUGCAUCGGUUUAAAAGGCAAGACCGUCAAAUUGCGGGAAAGGGGUCAACAGCCGUUCAGUACCAAGUCUCAGGGGAAACUUUGAGAUGGCCUUGCAAAGGGUAUGGUAAUAAGCUGACGGACAUGGUCCUAACCACGCAGCCAAGUCCUAAGUCAACAGAUCUUCUGUUGAUAUGGAUGCAGUUCACAGACUAAAUGUCGGUCGGGGAAGAUGUAUUCUUCUCAUAAGAUAUAGUCGGACCUCUCCUUAAUGGGAGCUAGCGGAUGAAGUGAUGCAACACUGGAGCCGCUGGGAACUAAUUUGUAUGCGAAAGUAUAUUGAUUAGUUUUGGAGUACUCGUGGUCG
Summary of the method: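 The eight P1ex-region nucleotides of an intron in the knt kanamycin-resistance gene on pET-22b(+) were all randomised and the library put into E. coli BL21(DE3). Six replicate transformations were grown overnight at 37°C or 30°C on LB agar with or without 25 μg/mL kanamycin, together with 100 μg/mL carbenicillin, 50 μM IPTG and 0.2% rhamnose. Colonies were pooled and amplicon-sequenced on an Illumina HiSeq 2500. Fitness from DiMSum is the error-weighted combination of wild-type-normalised replicate fold changes, kanamycin over none.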

Row | Sequence | self-splicing fitness (ln) (37 °C) | self-splicing fitness (ln) (30 °C)
1 | CAUUAGCAAUAUUACGCUAA | -3.66 ± 0.6 | 
2 | AGAGAGCAAUAUUACGAUGC | -1.29 ± 0.51 | 
3 | AUUAAGCAAUAUUACGCGUC | -2.19 ± 0.38 | -2.77 ± 0.3
4 | CCUUAGCAAUAUUACGACCU | -1.77 ± 0.29 | -2.79 ± 0.2
5 | CGUAAGCAAUAUUACGAUGU |  | -4.59 ± 0.72
6 | UCGUAGCAAUAUUACGUUGC | -2.25 ± 0.55 | 
7 | AUAGAGCAAUAUUACGAGCC | -2.23 ± 1.1 | -3.19 ± 0.78
8 | UGUUAGCAAUAUUACGAAAU |  | -3.21 ± 0.55
9 | AUGGAGCAAUAUUACGAGAC | -1.8 ± 0.66 | -2.65 ± 1.1
10 | CGGCAGCAAUAUUACGUUCG |  | -5.03 ± 0.51
11 | GCGUAGCAAUAUUACGGGAG |  | -3.65 ± 0.52
12 | CUGUAGCAAUAUUACGCUGC | -1.91 ± 0.51 | 
13 | CCUUAGCAAUAUUACGAAAC | -2.14 ± 0.61 | -2.8 ± 0.59
14 | GUCGAGCAAUAUUACGCUAA |  | -4.06 ± 0.72
15 | GGGCAGCAAUAUUACGCCCA | -1.26 ± 0.32 | -2.18 ± 0.48
16 | GACGAGCAAUAUUACGAGCC | -1.8 ± 0.79 | -2.73 ± 0.33
17 | AUAUAGCAAUAUUACGGCCU | -1.58 ± 0.39 | -0.457 ± 0.22
18 | CUAGAGCAAUAUUACGUACA | -1.64 ± 0.32 | -2.59 ± 0.36
19 | UGGAAGCAAUAUUACGAAGU | -2.94 ± 0.53 | 
20 | UUUGAGCAAUAUUACGGAGU | -2.39 ± 0.64 | -2.49 ± 0.28
21 | GCGGAGCAAUAUUACGACUG |  | -3.9 ± 1
22 | UCUUAGCAAUAUUACGCUCA | -2.61 ± 0.63 | -3.43 ± 1
23 | UUUAAGCAAUAUUACGUCCC |  | -0.868 ± 1.4
24 | ACCGAGCAAUAUUACGCCAG |  | -3.57 ± 0.53

From entry 2 up to 8, as listed above:
Row | Sequence | self-splicing fitness (ln) (37 °C) | self-splicing fitness (ln) (30 °C)
2 | AGAGAGCAAUAUUACGAUGC | -1.29 ± 0.51 | 
3 | AUUAAGCAAUAUUACGCGUC | -2.19 ± 0.38 | -2.77 ± 0.3
4 | CCUUAGCAAUAUUACGACCU | -1.77 ± 0.29 | -2.79 ± 0.2
5 | CGUAAGCAAUAUUACGAUGU |  | -4.59 ± 0.72
6 | UCGUAGCAAUAUUACGUUGC | -2.25 ± 0.55 | 
7 | AUAGAGCAAUAUUACGAGCC | -2.23 ± 1.1 | -3.19 ± 0.78
8 | UGUUAGCAAUAUUACGAAAU |  | -3.21 ± 0.55

(cont.)

Row | Sequence | self-splicing fitness (ln) (37 °C) | self-splicing fitness (ln) (30 °C)
25 | CUCGAGCAAUAUUACGUAAA | -2.2 ± 0.78 | 
26 | GCGAAGCAAUAUUACGAGCU | -0.926 ± 0.68 | -2.99 ± 0.79
27 | AGGGAGCAAUAUUACGUCGG |  | -3.52 ± 0.58
28 | UGAAAGCAAUAUUACGAGCC | -1.22 ± 0.9 | -3.43 ± 1
29 | AGGGAGCAAUAUUACGCUGA | -2.94 ± 0.74 | -2.81 ± 0.52
30 | UAGAAGCAAUAUUACGAGGU |  | -5.34 ± 0.71
31 | UAGUAGCAAUAUUACGUUGC |  | -1.02 ± 0.51
32 | CGAGAGCAAUAUUACGCCGA | -1.16 ± 0.74 | 
33 | GCGUAGCAAUAUUACGGCGC | -1.73 ± 0.68 | -2.82 ± 0.8
34 | AACGAGCAAUAUUACGCAAA |  | -2.87 ± 1.1
35 | AGGCAGCAAUAUUACGGCUG | -2.51 ± 0.75 | 
36 | UGUUAGCAAUAUUACGAAAC | -0.0544 ± 0.78 | 
37 | UUGCAGCAAUAUUACGCCCU | -1.08 ± 0.58 | 
38 | GUUGAGCAAUAUUACGGACG | -1.42 ± 0.29 | -1.78 ± 0.53
39 | AGGGAGCAAUAUUACGUGGU |  | -4.64 ± 1
40 | UCAGAGCAAUAUUACGAUUC |  | -4.48 ± 0.51
41 | GCACAGCAAUAUUACGCGUG | -2.35 ± 0.18 | -3.87 ± 0.2
42 | GUUCAGCAAUAUUACGGCUA | -0.232 ± 0.15 | -0.564 ± 0.14
43 | UCUUAGCAAUAUUACGCGUC | -3.94 ± 0.72 | 
44 | AUGUAGCAAUAUUACGGUCG | -1.59 ± 0.17 | -1.44 ± 0.12
45 | AGUUAGCAAUAUUACGCAUU | -0.806 ± 0.17 | -3.25 ± 0.25
46 | CUGGAGCAAUAUUACGAGCC |  | -2.48 ± 1.1
47 | UUGUAGCAAUAUUACGCCGU | -1.67 ± 0.68 | -1.96 ± 0.71
48 | AGGCAGCAAUAUUACGCGCG | -0.358 ± 0.14 | -0.446 ± 0.12

Row | Sequence | self-splicing fitness (ln) (37 °C) | self-splicing fitness (ln) (30 °C)
49 | CUUUAGCAAUAUUACGUUAA | -2.86 ± 0.53 | 
50 | GGAGAGCAAUAUUACGACUG |  | -4.1 ± 0.51
51 | GACGAGCAAUAUUACGUAAA | -2.71 ± 0.54 | 
52 | AAGGAGCAAUAUUACGUCUC | -1.6 ± 0.6 | 
53 | AAACAGCAAUAUUACGAAGG | -2.2 ± 0.15 | -3.85 ± 0.13
54 | CGGAAGCAAUAUUACGAAUA | -3.31 ± 0.52 | 
55 | UUGAAGCAAUAUUACGCCAC | -1.5 ± 0.52 | -2.1 ± 0.68
56 | UAAGAGCAAUAUUACGACUC |  | -3.7 ± 1.1
57 | GUACAGCAAUAUUACGCCAA |  | -3.41 ± 0.6
58 | ACAGAGCAAUAUUACGCGUU |  | -5.14 ± 1
59 | CUUGAGCAAUAUUACGUCGA | -2.45 ± 0.63 | 
60 | UACUAGCAAUAUUACGUAAA | -0.614 ± 0.14 | -1.66 ± 0.12
61 | CACAAGCAAUAUUACGCCCA | 0.114 ± 0.09 | -0.966 ± 0.091
62 | GCAGAGCAAUAUUACGAUAG | -2.81 ± 0.75 | -3.82 ± 1
63 | GUUGAGCAAUAUUACGAUAC |  | -2.2 ± 0.57
64 | UAACAGCAAUAUUACGCUGA | -1.61 ± 0.1 | -3.33 ± 0.2
65 | GCUGAGCAAUAUUACGUGCC | -2.24 ± 0.64 | 
66 | CUUAAGCAAUAUUACGGCUA | -3.35 ± 0.6 | 
67 | CUAUAGCAAUAUUACGAAAU | -0.234 ± 1.4 | -3.17 ± 0.62
68 | GCGGAGCAAUAUUACGUUCU | -1.35 ± 0.55 | -4.04 ± 1
69 | GCGGAGCAAUAUUACGUGGG | -2.25 ± 0.34 | -2.01 ± 0.3
70 | GGGCAGCAAUAUUACGGCCC | 0.694 ± 1.1 | 
71 | GCGGAGCAAUAUUACGGCCC |  | -1.82 ± 0.63
72 | CGCUAGCAAUAUUACGUCGC | -3.49 ± 1 | 

Row | Sequence | self-splicing fitness (ln) (37 °C) | self-splicing fitness (ln) (30 °C)
73 | CUAUAGCAAUAUUACGUGCC | -3.86 ± 0.73 | 
74 | UUCAAGCAAUAUUACGCCUG |  | -3.96 ± 0.73
75 | UUGAAGCAAUAUUACGAGUA | -0.59 ± 0.085 | -1.83 ± 0.077
76 | UGAAAGCAAUAUUACGAAGU | -2.96 ± 0.23 | -3.76 ± 0.21
77 | GAGCAGCAAUAUUACGGACC | -0.206 ± 0.16 | -0.847 ± 0.11
78 | GCGCAGCAAUAUUACGAGCC | -1.54 ± 0.54 | -3.28 ± 0.74
79 | AUCAAGCAAUAUUACGACCG | -0.381 ± 0.18 | -1.33 ± 0.15
80 | UCUAAGCAAUAUUACGUUCC | -1.6 ± 0.54 | -3.03 ± 1.1
81 | GGAUAGCAAUAUUACGCCGU | -0.441 ± 0.2 | -1.74 ± 0.25
82 | CCGGAGCAAUAUUACGCAUC | -1.37 ± 0.68 | 
83 | UAGGAGCAAUAUUACGCAGG | -2.92 ± 0.61 | 
84 | CGUGAGCAAUAUUACGUCCC |  | -3.92 ± 0.52
85 | CAUGAGCAAUAUUACGAUCC | -2.16 ± 0.55 | -4.17 ± 0.59
86 | CUUAAGCAAUAUUACGCCUU |  | -4.02 ± 0.59
87 | CAGGAGCAAUAUUACGAGAA |  | -5.31 ± 1
88 | UUAUAGCAAUAUUACGCAUC | -2.21 ± 0.65 | -2.25 ± 0.68
89 | CCUCAGCAAUAUUACGAAGA | -2.31 ± 0.25 | -3.71 ± 0.3
90 | ACUCAGCAAUAUUACGGUUU | -0.291 ± 0.057 | -0.62 ± 0.048
91 | GAGGAGCAAUAUUACGAGCU |  | -0.54 ± 0.76
92 | GUCCAGCAAUAUUACGGCUA | 0.143 ± 0.073 | -0.25 ± 0.068
93 | UACUAGCAAUAUUACGUACG | -1.31 ± 0.091 | -2.76 ± 0.1
94 | UUGGAGCAAUAUUACGAUCC |  | -3.16 ± 1
95 | CCAGAGCAAUAUUACGUAAC | -1.96 ± 0.32 | -3.56 ± 0.37
96 | UAUUAGCAAUAUUACGCGGC |  | -2.65 ± 0.76

Row | Sequence | self-splicing fitness (ln) (37 °C) | self-splicing fitness (ln) (30 °C)
97 | CAAGAGCAAUAUUACGAUUC | -1.62 ± 0.58 | 
98 | CUCGAGCAAUAUUACGCGCA | -2.16 ± 1.1 | 
99 | GCGGAGCAAUAUUACGACCA |  | -3.8 ± 0.6
100 | CGAGAGCAAUAUUACGCGCC | -0.778 ± 1 | -2.25 ± 1.1
101 | UACGAGCAAUAUUACGCAUC |  | -4.38 ± 0.51
102 | UUCUAGCAAUAUUACGGACC | -2.09 ± 0.65 | 
103 | GUUGAGCAAUAUUACGGACC | -1.09 ± 0.6 | 
104 | UCUGAGCAAUAUUACGGGCC | -2.11 ± 0.57 | 
105 | UUUAAGCAAUAUUACGGGCC |  | -2.97 ± 0.53
106 | CAUUAGCAAUAUUACGAGGU | -2.66 ± 0.3 | -3.01 ± 0.27
107 | GCCGAGCAAUAUUACGCCAA | -1.92 ± 0.55 | 
108 | UCAGAGCAAUAUUACGGAAA |  | -3.12 ± 1.1
109 | GUAUAGCAAUAUUACGGAGA |  | -3.21 ± 1.1
110 | CUUGAGCAAUAUUACGGAUC |  | -4.33 ± 0.72
111 | CCGAAGCAAUAUUACGUGCA | -2.15 ± 0.5 | 
112 | CUAGAGCAAUAUUACGGCGA | -2.32 ± 0.54 | 
113 | GGUGAGCAAUAUUACGUCAG | -2.04 ± 0.51 | -1.42 ± 0.63
114 | UUGUAGCAAUAUUACGUUGC | -2.29 ± 0.46 | 
115 | AUCGAGCAAUAUUACGGUGA | -2.25 ± 0.15 | -2.39 ± 0.12
116 | CUCCAGCAAUAUUACGCCCC | -1.42 ± 0.59 | 
117 | UAGCAGCAAUAUUACGGAGG | -2.6 ± 0.22 | -3.29 ± 0.15
118 | CAAGAGCAAUAUUACGGCCC |  | -3.39 ± 0.74
